Test results from US20210115153A1 (PEPTRON, published 2021).
Results are given in words; binding and its absence hold for the method and conditions named. Some entries that bind do so weakly or less than the wild type.

The chains behind the UniProt entries cited, without tags or fusion partners. Where a name states a change or a piece, a line headed by the entry shows the natural chain unless it says otherwise.
UniProt P15941: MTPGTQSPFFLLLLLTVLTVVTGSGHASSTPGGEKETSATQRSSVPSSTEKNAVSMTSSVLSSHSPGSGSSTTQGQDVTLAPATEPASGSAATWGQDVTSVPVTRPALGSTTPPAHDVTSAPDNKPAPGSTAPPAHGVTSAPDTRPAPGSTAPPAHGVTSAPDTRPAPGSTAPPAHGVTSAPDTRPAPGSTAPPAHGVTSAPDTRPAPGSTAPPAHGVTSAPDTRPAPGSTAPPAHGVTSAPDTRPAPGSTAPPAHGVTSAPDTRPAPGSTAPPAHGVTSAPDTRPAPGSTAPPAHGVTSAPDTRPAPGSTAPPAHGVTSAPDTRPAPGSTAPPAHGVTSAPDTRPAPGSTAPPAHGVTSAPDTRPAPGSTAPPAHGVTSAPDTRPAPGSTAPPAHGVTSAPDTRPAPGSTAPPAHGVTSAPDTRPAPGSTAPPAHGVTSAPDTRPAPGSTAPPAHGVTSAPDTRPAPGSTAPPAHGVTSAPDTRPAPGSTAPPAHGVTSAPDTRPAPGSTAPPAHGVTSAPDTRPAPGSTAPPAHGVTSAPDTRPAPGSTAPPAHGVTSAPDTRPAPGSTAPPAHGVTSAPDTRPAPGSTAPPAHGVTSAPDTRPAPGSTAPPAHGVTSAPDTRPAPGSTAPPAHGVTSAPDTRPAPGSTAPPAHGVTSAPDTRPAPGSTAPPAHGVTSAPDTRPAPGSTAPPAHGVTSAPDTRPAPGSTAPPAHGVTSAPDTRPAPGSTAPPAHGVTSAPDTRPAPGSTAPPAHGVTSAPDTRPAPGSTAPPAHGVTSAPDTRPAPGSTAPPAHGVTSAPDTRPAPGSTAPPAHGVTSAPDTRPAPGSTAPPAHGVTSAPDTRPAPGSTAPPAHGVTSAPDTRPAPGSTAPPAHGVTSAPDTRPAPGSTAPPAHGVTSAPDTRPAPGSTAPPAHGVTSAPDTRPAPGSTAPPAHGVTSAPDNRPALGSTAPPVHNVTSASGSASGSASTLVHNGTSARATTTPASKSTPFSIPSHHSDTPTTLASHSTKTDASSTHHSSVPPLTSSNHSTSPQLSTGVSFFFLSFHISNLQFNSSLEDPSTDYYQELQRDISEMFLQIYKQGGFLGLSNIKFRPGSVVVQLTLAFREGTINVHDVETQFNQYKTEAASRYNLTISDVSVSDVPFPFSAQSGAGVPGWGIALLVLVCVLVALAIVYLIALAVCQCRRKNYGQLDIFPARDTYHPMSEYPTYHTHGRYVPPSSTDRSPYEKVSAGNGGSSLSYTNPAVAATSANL

Tests used:
[1] = molecular target: human MUC1 protein (Mucin 1), endogenous in human cancer cell lines (human) (UniProt P15941); assay: flow cytometry (legend of FIG. 19)
[2] = molecular target: human MUC1 protein (Mucin 1), endogenous in human cancer cell lines (human) (UniProt P15941); assay: flow cytometry on paraformaldehyde-fixed cells, FITC anti-human IgG
[3] = molecular target: human MUC1 protein (Mucin 1), endogenous in human cancer cell lines (human) (UniProt P15941); assay: flow cytometry on ZR75-1 cells, several antibody concentrations
[4] = molecular target: human MUC1 protein (Mucin 1), endogenous in human cancer cell lines (human) (UniProt P15941); assay: flow cytometry on ZR75-1 cells (legend of FIG. 20)
[5] = molecular target: human MUC1 protein (Mucin 1), endogenous in human cancer cell lines (human) (UniProt P15941); assay: DyLight 488-labelled antibody on living cancer cells at 37 °C, confocal microscopy
[6] = molecular target: human MUC1 protein (Mucin 1), endogenous in human cancer cell lines (human) (UniProt P15941); assay: immunoprecipitation from PNGase F-treated T47D lysate, immunoblot with anti-MUC1-CT or anti-MUC1-CT2
[7] = molecular target: human MUC1 protein (Mucin 1), endogenous in human cancer cell lines (human) (UniProt P15941); assay: immunoprecipitation from native cell lysates (FIG. 3B)
[8] = molecular target: human MUC1 protein (Mucin 1), endogenous in human cancer cell lines (human) (UniProt P15941); assay: intravenous injection into mice with T47D, ZR75-1 or Capan-2 tumors, fluorescence of tumor sections
[9] = molecular target: human MUC1 protein (Mucin 1), endogenous in human cancer cell lines (human) (UniProt P15941); assay: immunoprecipitation from native pancreatic cancer cell lysates, immunoblot
[10] = molecular target: human MUC1 protein (Mucin 1), endogenous in human cancer cell lines (human) (UniProt P15941); assay: immunoprecipitation from native cell lysates, immunoblot with anti-MUC1-CT
[11] = molecular target: human MUC1 protein (Mucin 1), endogenous in human cancer cell lines (human) (UniProt P15941); assay: immunofluorescence of fixed cells (surface and intracellular), confocal microscopy
[12] = molecular target: human MUC1 protein (Mucin 1), endogenous in human cancer cell lines (human) (UniProt P15941); assay: immunofluorescence of breast cancer cells, confocal microscopy

Measured: binding

B1: anti-hMUC1-C humanized antibody (G3) (antibody, V domains shown)
VH: EVQLVQSGAEVKKPGATVKISCKVSGYTFTSYWMHWVQQAPGKGLEWIGYINPGTGYIEYNQKFKDRVTITADKSTDTAYMELSSLRSEDTAVYYCASSTAPFDYWGQGTLVTVSS
VL: EIVLTQSPGTLSLSPGERATLSCKASQDIKSYLSWYQQKPGQAPRLLIYYATRLADGIPDRFSGSGSGTDFTLTISRLEPEDFAVYYCLQYDESPYTFGQGTKLEIKR
binds: [1] | [2] | [3] | [4]

B2: anti-hMUC1 monoclonal antibody purified from hybridoma hMUC1-1H7 (KCLRF-BP-00395) (antibody, V domains shown)
VH: EVQLQQSGAELAKPGASVKMSCKVSGYTFTSYWMHWVKQRPGQGLEWIGYINPGTGYIEYNQKFKDKATLTADKSSSTAYMQLSSLTSEDSAVYYCASSTAPFDYWGQGTTLTVSS
VL: DIVITQSPSSMYASLGERVTITCKASQDIKSYLSWYQQKPWKSPKTLIYYATRLADGVPSRFSGSGSGQDYSLTISSLESDDTATYYCLQYDESPYTFGGGTKLEIKR
notes: also called anti-hMUC1 antibody; anti-hMUC1-C mouse antibody (1H7)
not listed: [1] | [2] | [12]
binds: all other assays above

B3: recombinant Fab-hMUC1-1H7 (Fab, V domains shown, not shown: a dimerising Fc or GST; small tags and cut ends)
VH: EVQLQQSGAELAKPGASVKMSCKVSGYTFTSYWMHWVKQRPGQGLEWIGYINPGTGYIEYNQKFKDKATLTADKSSSTAYMQLSSLTSEDSAVYYCASSTAPFDYWGQGTTLTVSS
VL: DIVITQSPSSMYASLGERVTITCKASQDIKSYLSWYQQKPWKSPKTLIYYATRLADGVPSRFSGSGSGQDYSLTISSLESDDTATYYCLQYDESPYTFGGGTKLEIKR
binds: [12]
